Patent publication EP2397149A1 (Hil-Invent Ges.M.B.H., priority 2010, dated 2011)
At least one compound was matched to its structure with a doubt left.

Legend:
[1] = test system: TCL1 mouse model of B-CLL; details: cited from earlier work
[2] = test system: engrafted wildtype (C57BL/6) mice (CD5+/CD19+ cells); assay: Treatment study 03: head to head comparison of actinomycin D and fludarabine; type: in vivo; details: 22 days after treatment start
Experimental: Viability was measured using flow-cytometry (AnnexinV/7-AAD,-/-). […] The length of the box corresponds to the interquartile range (IQR) and is the difference between the 75th and 25th percentiles. The horizontal line in the box is the median. […] Viability of B-CLL cells was assessed using a flow-cytometer (Annex-inV/7-AAD -/-). The length of the box corresponds to the interquartile range (IQR) and is the difference between the 75th and 25th percentiles. The horizontal line in the box is the median. […] Day zero is the day of engraftment with 3x10^6 lymphocytes derived from TCL1 transgenic mice with overt leukemia. […] Blood samples were collected from the tail vein of the respective animal and whole blood was analysed for CD5/CD19 positive cells using a flow-cytometer. […] Dashed line is 0.04 mg/kg and black line is 0.05 mg/kg daily for two weeks.
The original Eµ-TCL1a transgenic mice which were generously provided by C. Croce (Ohio) have been back-crossed for > 9 generations to C57BL/6 mice. Mice were killed at stated ages, or when signs of illness developed, and samples for histology, flow cytometry, and miRNA isolation were collected. The tumor load in all lymphoid organs was assessed by flow cytometry following staining for the surface markers CD19, CD5, and IgM. […]
At day 22 after treatment start tumour load was assessed compared to that of the tumour load of untreated mice.

Row | SMILES | mice succumbed to disease by day 77 after engraftment ([1]; by day 77 after engraftment) | overall survival ([1]; treated mice) | tumour load (CD5+/CD19+ cell count), Fig. 6 [2]
1 | CO[C@H]1C[C@@H]2CC[C@@H](C)[C@@](O)(O2)C(=O)C(=O)N2CCCC[C@H]2C(=O)O[C@H]([C@H](C)C[C@@H]2CC[C@@H](O)[C@H](OC)C2)CC(=O)[C@H](C)/C=C(\C)[C@@H](O)[C@@H](OC)C(=O)[C@H](C)C[C@H](C)/C=C/C=C/C=C/1C [Rapamycin] | 7/8 | slight increase in overall survival | –
2 | Nc1nc(F)nc2c1ncn2[C@@H]1O[C@H](CO)[C@@H](O)[C@@H]1O [fludarabine] | – | – | not able to reduce the tumour load
